At least one structure is not confirmed: it was looked up by name or label, or the drawing left a doubt.
How the values were obtained:
[1] = tested on: NF2 deficiency in primary human cells; test: Primary drug screens on NF2 loss-of-function model; type: cell-based; details: primary screen
Description: To identify novel and effective treatments for NF2, a loss-of-function model of the disease in a primary human cells and screened for molecules that rescue the disease-specific phenotype. […] These figures illustrate results from a series of primary drug screens to identify drug candidates for NF2 from a library of approximately 2000 small molecules. Scores for control perturbations (largely clustered in region 1102), test perturbations (largely clustered in region 1104), and query perturbations (largely clustered in region 1106), are shown in the plots. A small number of hits were algorithmically selected based on their effects in the assay and used for further screening.

patients with NF2 = details: Phase 2 study; cited from earlier work
patients with A-T = details: human studies; cited from earlier work
[2] = tested on: ATM deficiency in A549 cells; test: Cell Painting phenotypic screen on the A-T disease model (on-target/off-target scores); details: ATM deficient A549 cells
[3] = tested on: Chk2 phosphorylation in ATM knockdown A549 cells; test: Western blot for phosphorylated Chk2 in siRNA transfected A549 cells treated with H2O2; type: cell-based; details: H2O2 treatment
Procedure: Glucocorticoids are identified by the dashed red polygon 901. […] Western blots probed for ATM and phosphorylated Chk2.
To further validate these compounds, disease-specific studies were performed. In response to DNA damage, ATM stimulates phosphorylation of a host of target proteins, including the checkpoint kinase Chk2. As expected, it was observed that siRNA-mediated knockdown of ATM mRNA in the A549 model cell-line suppressed phosphorylation of Chk2 after H2O2 treatment. Moreover, most glucocorticoids tested restored Chk2 phosphorylation to nearly 50% of control levels, with betamethasone and dexamethasone showing the least rescue (FIG. 9C).

Structure (SMILES)	rescue of NF2 loss-of-function phenotype [1]	clinical efficacy in NF2 / meningioma (patients with NF2)	neurological manifestations / symptoms in A-T patients (patients with A-T)	rescue of high-dimensional disease phenotype (efficacy / disease score) in the screen [2]	rescue of Chk2 phosphorylation associated with ATM deficiency [3]
CCN(CC)CCNC(=O)c1c(C)[nH]c(/C=C2\C(=O)Nc3ccc(F)cc32)c1C [Sunitinib, sunitinib]	moderate rescue	demonstrated activity			
CNC(=O)c1ccccc1Sc1ccc2c(/C=C/c3ccccn3)n[nH]c2c1 [axitinib]	did not show sufficient efficacy				
C[C@H]1C[C@H]2[C@@H]3CCC4=CC(=O)C=C[C@]4(C)[C@@]3(F)[C@@H](O)C[C@]2(C)[C@@]1(O)C(=O)CO [betamethasone]			improve neurological manifestations	hits	
C[C@@H]1C[C@H]2[C@@H]3CCC4=CC(=O)C=C[C@]4(C)[C@@]3(F)[C@@H](O)C[C@]2(C)[C@@]1(O)C(=O)CO [dexamethasone]				hits	All glucocorticoids except dexamethasone rescued Chk2 phosphorylation

Source: US12170135B2, “Systems and methods for evaluating query perturbations” (Recursion Pharmaceuticals, Inc., priority 2019, dated 2024)
